Measurements as given in paper doi:10.1101/2025.06.10.658793.
Read-outs that look alike come from different tables or passages of the source. Results are given in words; binding and its absence hold for the method and conditions named. For part of these data: Binding seen in cells or lysates may run through a third protein. Some entries that bind do so weakly or less than the wild type. For part of these data: Where a sequence is shown, tags or fusion partners need not be part of it.

Protein sequences, listed by entry. Tags and fused reporters are not part of them.
UniProt P08393: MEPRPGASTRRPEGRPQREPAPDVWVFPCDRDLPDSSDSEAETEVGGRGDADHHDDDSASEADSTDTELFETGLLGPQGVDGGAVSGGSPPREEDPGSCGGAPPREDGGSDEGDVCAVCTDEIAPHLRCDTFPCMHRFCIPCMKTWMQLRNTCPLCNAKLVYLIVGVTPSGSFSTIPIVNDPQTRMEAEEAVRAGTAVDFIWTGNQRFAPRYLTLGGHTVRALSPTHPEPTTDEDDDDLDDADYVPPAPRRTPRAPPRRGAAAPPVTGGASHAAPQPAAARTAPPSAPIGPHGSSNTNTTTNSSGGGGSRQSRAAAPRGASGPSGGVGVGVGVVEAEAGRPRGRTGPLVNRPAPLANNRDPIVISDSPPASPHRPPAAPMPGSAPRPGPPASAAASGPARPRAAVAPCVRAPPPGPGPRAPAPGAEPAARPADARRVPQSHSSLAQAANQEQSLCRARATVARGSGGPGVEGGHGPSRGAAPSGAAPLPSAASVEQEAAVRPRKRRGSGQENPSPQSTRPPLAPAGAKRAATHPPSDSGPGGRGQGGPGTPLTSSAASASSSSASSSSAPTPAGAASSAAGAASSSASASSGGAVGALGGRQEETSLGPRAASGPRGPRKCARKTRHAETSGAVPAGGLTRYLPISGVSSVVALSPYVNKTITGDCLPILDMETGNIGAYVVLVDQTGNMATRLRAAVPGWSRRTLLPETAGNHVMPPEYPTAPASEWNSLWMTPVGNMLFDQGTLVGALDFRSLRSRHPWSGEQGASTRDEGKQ

How the values were obtained:
Myc-tagged WT RAP80 = molecular target: T1, Myc-tagged WT RAP80 (UniProt Q96RL1); experiment: co-IP
T1 sequence: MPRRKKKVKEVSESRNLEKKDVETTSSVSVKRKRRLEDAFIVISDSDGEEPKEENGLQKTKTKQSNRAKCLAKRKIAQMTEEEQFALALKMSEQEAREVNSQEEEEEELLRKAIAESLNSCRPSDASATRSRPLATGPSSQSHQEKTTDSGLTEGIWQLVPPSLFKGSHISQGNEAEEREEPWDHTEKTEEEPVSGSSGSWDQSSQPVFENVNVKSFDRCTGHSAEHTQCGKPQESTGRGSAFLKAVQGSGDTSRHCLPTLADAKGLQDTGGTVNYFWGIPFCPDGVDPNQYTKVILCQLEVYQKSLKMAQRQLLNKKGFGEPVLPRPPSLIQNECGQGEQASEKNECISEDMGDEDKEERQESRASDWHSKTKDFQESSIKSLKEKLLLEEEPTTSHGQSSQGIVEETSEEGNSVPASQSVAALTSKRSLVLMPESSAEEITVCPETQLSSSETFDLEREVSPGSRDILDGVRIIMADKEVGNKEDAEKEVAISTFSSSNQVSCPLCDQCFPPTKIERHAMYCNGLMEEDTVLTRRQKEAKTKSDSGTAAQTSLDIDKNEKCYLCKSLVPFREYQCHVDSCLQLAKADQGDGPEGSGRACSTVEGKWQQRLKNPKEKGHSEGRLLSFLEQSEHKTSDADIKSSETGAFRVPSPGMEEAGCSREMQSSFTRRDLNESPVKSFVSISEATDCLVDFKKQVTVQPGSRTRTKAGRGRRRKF

Flag-tagged RAP80 [1] = molecular target: T2, Flag-tagged RAP80 (UniProt Q96RL1); experiment: pull-down
T2 sequence: T1 sequence

[2] = molecular target: ubiquitinated RAP80 3KR mutant (UniProt Q96RL1); experiment: pull-down
Flag-tagged RAP80 [3] = molecular target: T2, Flag-tagged RAP80; experiment: pull-down; remark: listed apart in the source
ubiquitinated RAP80 = molecular target: T3, ubiquitinated RAP80 (UniProt Q96RL1); experiment: pull-down
T3 sequence (chain, ubiquitinated (sites and chain type not stated for this sample)): T1 sequence

[4] = molecular target: RAP80 3KR mutant (precipitated with anti-Flag) (UniProt Q96RL1); experiment: pull-down

Measured: binding

Flag-tagged ICP0 (from UniProt P08393 1-775)
binds: Myc-tagged WT RAP80

purified ubiquitinated ICP0 (from UniProt P08393 1-775)
not listed: Myc-tagged WT RAP80
binds: all other assays above
